PubChem BioAssay AID588590 (National Center for Advancing Translational Sciences (NCATS), 2011)
In all, about 390,000 compounds went through this assay and about 4,000 (1%) were called active. The shares of active, inactive and inconclusive entries below differ from those in the screen. Calls come from the whole dose curve; as a rule, active = well fitted inhibition curve with a large enough effect; inconclusive = small, poorly fitted or top-dose-only effect, or another doubt; inactive = no such curve, though single readings can be large or run the other way. A potency beside an inconclusive call is a rough fit, not a confirmed value.

Chains of the proteins cited; added tags and fusions are not shown. Lines headed by an entry give the natural chain unless they say otherwise; changes in a name come on top.
UniProt Q9UNA4: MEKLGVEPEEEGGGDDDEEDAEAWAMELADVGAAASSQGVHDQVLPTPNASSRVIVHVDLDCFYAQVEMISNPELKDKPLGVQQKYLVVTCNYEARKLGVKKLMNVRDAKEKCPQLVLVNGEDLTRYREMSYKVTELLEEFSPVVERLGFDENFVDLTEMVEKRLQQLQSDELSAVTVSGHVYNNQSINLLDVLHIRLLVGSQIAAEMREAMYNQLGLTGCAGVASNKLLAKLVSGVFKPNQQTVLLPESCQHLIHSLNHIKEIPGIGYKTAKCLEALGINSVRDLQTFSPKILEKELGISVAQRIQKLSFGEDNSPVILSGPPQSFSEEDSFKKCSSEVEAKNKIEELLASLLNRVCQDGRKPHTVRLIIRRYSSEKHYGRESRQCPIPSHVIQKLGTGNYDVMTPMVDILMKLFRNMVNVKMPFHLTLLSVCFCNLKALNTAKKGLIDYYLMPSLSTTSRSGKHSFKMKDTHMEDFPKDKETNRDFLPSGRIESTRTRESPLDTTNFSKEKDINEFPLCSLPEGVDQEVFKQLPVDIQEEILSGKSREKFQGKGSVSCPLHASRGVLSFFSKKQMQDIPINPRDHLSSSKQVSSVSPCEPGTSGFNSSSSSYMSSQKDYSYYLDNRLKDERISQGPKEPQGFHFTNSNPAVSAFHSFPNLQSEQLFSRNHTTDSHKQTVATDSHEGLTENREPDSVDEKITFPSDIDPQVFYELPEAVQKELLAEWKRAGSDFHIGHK

Molecular target: DNA polymerase iota (Homo sapiens) (UniProt Q9UNA4)
Assay: qHTS for Inhibitors of Polymerase Iota
Settings: Pol iota fluorescent replication assay, 10 min; series mostly up to 115 µM
In short: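 Pol iota at 10 nM preincubated 15 min with compounds at room temperature; reaction started with fluorescent substrate, 50 nM final. Fluorescence read kinetically at 0 and 10 min; buffer-only wells as negative control.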
Potency is the fitted concentration of half-maximal effect.

Compound	Potency
O=C(N/N=C/c1ccccn1)c1ccncc1	inconclusive: 11.2 µM [inhibitor, partial curve, poor fit]
O=c1[nH]c(C2CCN(S(=O)(=O)c3ccccc3F)CC2)nc2c1nnn2Cc1ccc(OC(F)(F)F)cc1	inconclusive: 31.6 µM [inhibitor, single point]
Cc1nc2c(=O)[nH]c(=S)n(C)c2nc1C	inconclusive: 89.1 µM [inhibitor, partial curve, poor fit]
O=C(NCc1cccc(C(F)(F)F)c1)c1ccc(=O)[nH]c1	inconclusive: 1.12 µM [inhibitor, full curve, poor fit]
COc1ccc(-c2ccc(NC(=O)c3ccco3)cc2)nn1	inconclusive: 12.6 µM [inhibitor, full curve, poor fit]
Cc1cccc(C(=O)Nc2ccccc2-c2nc(-c3ccccc3)no2)c1	inconclusive: 79.4 µM [inhibitor, partial curve, poor fit]
CC(=O)c1c(C)oc2ccc(N(C(=O)Oc3ccccc3)S(=O)(=O)c3ccc(Br)cc3)cc12	inconclusive: 79.4 µM [inhibitor, partial curve, poor fit]
CC(C)CN(c1ccccc1)S(=O)(=O)c1nnc(NC(=O)c2ccco2)s1	inconclusive: 25.1 µM [inhibitor, full curve, poor fit]
O=C1Nc2ccccc2/C1=C/c1cccnc1	inconclusive: 5.01 µM [inhibitor, full curve, poor fit]
CC1(C)Cc2nc3sc(C(=O)NCCCO)c(N)c3cc2CO1	inconclusive: 12.6 µM [inhibitor, partial curve, poor fit]
COc1ccc(CNC(=O)[C@H](C)[C@@H]2C[C@@]2(C)[C@@H](NC(=O)OCc2ccccc2)c2ccccc2)cc1OC	inconclusive: 79.4 µM [inhibitor, single point]
Oc1ccc2ccccc2c1C=Nc1ccc(Cl)cn1	inconclusive: 35.5 µM [inhibitor, single point]
N#CC(C#N)=Cc1ccc(NC(=O)c2ccc(Br)cc2)cc1	inconclusive: 20 µM [inhibitor, full curve, poor fit]
C=CCOc1ccc(/C=C2\SC(=Nc3cccnc3)NC2=O)cc1	inconclusive: 35.5 µM [inhibitor, partial curve]
Cc1ccc(C)c(CN2C(=O)c3ccccc3S(=O)(=O)c3ccc(C(=O)N4CCN(Cc5ccccc5)CC4)cc32)c1	inconclusive: 100 µM [inhibitor, single point]
Cc1cccc(N(CC(=O)NC(C)(C)C)C(=O)CCC(=O)Nc2nccs2)c1	inconclusive: 89.1 µM [inhibitor, single point]
O=C(NCCc1ccccc1)c1ccc2nc(-c3ccco3)c(-c3ccco3)nc2c1	inconclusive: 25.1 µM [inhibitor, full curve, poor fit]
O=C(O)CCCn1cc(NC(=O)COc2ccccc2)cn1	inconclusive: 100 µM [inhibitor, single point]
O=C(CSc1nccc(=O)[nH]1)Nc1ccc(F)c([N+](=O)[O-])c1	inconclusive: 89.1 µM [inhibitor, partial curve, poor fit]
CC1Cc2cc(S(=O)(=O)CCC(=O)Nc3ccc(OC(F)(F)F)cc3)ccc2N1C(=O)C1CC1 (centres undefined)	inconclusive: 100 µM [inhibitor, single point]

Molecules listed so far that have a furan ring, fused or not (4):
Compound	Potency
COc1ccc(-c2ccc(NC(=O)c3ccco3)cc2)nn1	inconclusive: 12.6 µM [inhibitor, full curve, poor fit]
CC(=O)c1c(C)oc2ccc(N(C(=O)Oc3ccccc3)S(=O)(=O)c3ccc(Br)cc3)cc12	inconclusive: 79.4 µM [inhibitor, partial curve, poor fit]
CC(C)CN(c1ccccc1)S(=O)(=O)c1nnc(NC(=O)c2ccco2)s1	inconclusive: 25.1 µM [inhibitor, full curve, poor fit]
O=C(NCCc1ccccc1)c1ccc2nc(-c3ccco3)c(-c3ccco3)nc2c1	inconclusive: 25.1 µM [inhibitor, full curve, poor fit]

Next part

Compound	Potency
CCOC(=O)c1sc(N)c(C#N)c1CSc1nnc(C2CCCCC2)n1N	inconclusive: 20 µM [inhibitor, partial curve]
CCCCCc1c(C)nc(Nc2ccccc2)[nH]c1=O	inactive
COc1ccccc1-c1cc(C(F)(F)F)nc(S(=O)(=O)CCCC(=O)O)n1	inconclusive: 17.8 µM [inhibitor, full curve, poor fit]
COc1cccc(NS(=O)(=O)c2cc(-c3cnc(C4CC4)o3)ccc2C)c1	inactive
COc1ccc(-c2noc(C3CC(=O)N(c4ccc5c(c4)OCCO5)C3)n2)c(OC)c1 (centres undefined)	inactive
COc1ccc(CC(CC(=O)O)C(=O)Nc2ccccc2)cc1 (centres undefined)	inconclusive: 89.1 µM [inhibitor, single point]
Cc1ccc(CSc2nnc3c(n2)OC2(Nc4ccccc4-3)C(=O)Nc3ccc(F)cc32)cc1 (centres undefined)	inconclusive: 15.8 µM [inhibitor, partial curve, poor fit]
N#C/C(=C\c1ccc(O)c(O)c1)S(=O)(=O)c1ccccc1	inconclusive: 2.51 µM [inhibitor, full curve, poor fit]
CNS(=O)(=O)c1cccc(C(=O)OCC(=O)c2ccc3c(c2)OCCO3)c1	inconclusive: 44.7 µM [inhibitor, partial curve]
COCCCNC(=S)NNC(=S)Nc1cccc(Cl)c1	inconclusive: 12.6 µM [inhibitor, partial curve, poor fit]
Cc1cc(C)nc(NNS(=O)(=O)c2ccc(F)c(Cl)c2)n1	inconclusive: 31.6 µM [inhibitor, partial curve, poor fit]
COc1cc(/C=N/NC(=O)c2ccc(N3CCCC3=O)cc2)ccc1O	inconclusive: 20 µM [inhibitor, full curve]
CCOC(=O)c1cnc2nc(SCc3ccccc3Cl)[nH]n2c1=O	inconclusive: 31.6 µM [inhibitor, single point]
Cc1ccc(C(=O)Nc2cccc(C(F)(F)F)c2)cc1Nc1ccccn1	inconclusive: 25.1 µM [inhibitor, partial curve, poor fit]
COCCn1c(SCC(=O)Nc2cc(C(C)(C)C)nn2-c2ccccc2)nnc1-c1ccncc1	inactive
Cc1ccc(S(=O)(=O)N2CCN(C(=O)C3Cc4ccccc4CN3C(=O)c3ccco3)CC2)cc1 (centres undefined)	inconclusive: 8.91 µM [inhibitor, full curve, poor fit]
O=C(NC(=S)Nc1ccc(Cl)cc1)c1ccccc1	inactive
c1ccc(Cn2nnnc2C(c2cccs2)N2CCc3ccccc3C2)cc1 (centres undefined)	inconclusive: 17.8 µM [inhibitor, single point]
CN(C)S(=O)(=O)c1ccc(-c2csc(N/N=C/c3ccc(O)cc3)n2)cc1	inconclusive: 39.8 µM [inhibitor, single point]
CCN1CCN(c2cc(C)c3cc(NC(=O)c4cc(OC)cc(OC)c4)ccc3n2)CC1	inactive

Compound	Potency
O=C(Nc1cc(Cl)ccc1C(=O)O)c1ccc(CN2C(=O)c3ccccc3C2=O)cc1	inconclusive: 89.1 µM [inhibitor, partial curve, poor fit]
C#CCO[C@@H]1C[C@H](n2ccc(NC(=O)c3ccccc3)nc2=O)O[C@@H]1CO	inconclusive: 39.8 µM [inhibitor, single point]
COc1ccc(N2Cc3cccc(C(=O)Nc4ccc(Cl)cc4)c3C2=O)cc1	inconclusive: 89.1 µM [inhibitor, single point]
CCn1c(CNC(=O)Cc2ccc(OC)cc2)nnc1SCC(=O)Nc1nccs1	inconclusive: 89.1 µM [inhibitor, single point]
CCC[n+]1c(/C=C/c2c(OC)cc(OC)cc2OC)ccc2ccccc21	inconclusive: 56.2 µM [inhibitor, partial curve, poor fit]
CC(=O)c1ccc(S(=O)(=O)N(CCCO)Cc2cc3cc(C)ccc3[nH]c2=O)cc1	inconclusive: 25.1 µM [inhibitor, full curve]
COc1ccc(C)cc1NC(=O)C(Cc1ccccc1)NS(=O)(=O)c1ccc(Br)s1 (centres undefined)	inconclusive: 89.1 µM [inhibitor, single point]
C/C(CC(=O)Nc1ccc(N(C)C)cc1)=N\NC(=O)Cc1csc(N)n1	inconclusive: 100 µM [inhibitor, partial curve, poor fit]
CC(C)C[C@@H](CN)NC(=O)c1nc[nH]c1C(=O)N[C@@H](Cc1ccccc1)C(=O)CNC[C@H](C)NC(=O)c1nc[nH]c1C(=O)N[C@@H](CC(C)C)C(=O)O	inconclusive: 25.1 µM [inhibitor, full curve, poor fit]
CC1CCCC(C)N1C(=O)COC(=O)/C=C/c1ccco1 (centres undefined)	inconclusive: 35.5 µM [inhibitor, partial curve, poor fit]
CCCN1CCN(S(=O)(=O)c2ccc3c(c2)NC(=O)C(C)C(=O)N3)CC1 (centres undefined)	inconclusive: 12.6 µM [inhibitor, single point]
O=C(CCCN1C(=O)S/C(=C\C=C\c2ccccc2)C1=O)Nc1ccc(C(=O)O)cc1	inconclusive: 28.2 µM [inhibitor, single point]
CC(=O)N1CCOc2ccc(S(=O)(=O)NCc3ccc(F)cc3)cc21	active: 70.8 µM
CC1(C)CC(=O)C(C(C2=C(O)CC(C)(C)CC2=O)c2ccco2)C(=O)C1 (centres undefined)	inconclusive: 79.4 µM [inhibitor, partial curve, poor fit]
Cn1cnc([N+](=O)[O-])c1S(=O)(=O)Oc1ccc(Cl)cc1	inconclusive: 28.2 µM [inhibitor, partial curve]
Fc1ccc(N=C2NN=C(c3cc(F)ccc3F)CS2)cc1	inactive
O=C(O)COc1cccc2nsnc12	inconclusive: 39.8 µM [inhibitor, single point]
O=C(c1cccc(Cl)c1)N1c2ncnn2C2(CCCCC2)[C@@H]2CCCC[C@@H]21	inconclusive: 89.1 µM [inhibitor, single point]
O=C1NC(=O)/C(=C/c2cc3c(cc2Br)OCO3)S1	inconclusive: 25.1 µM [inhibitor, single point]
